Consider two molecules from paper PMC11405407.

Sequences of proteins named here, by UniProt entry; tags and fusion partners are left off.
UniProt Q92831: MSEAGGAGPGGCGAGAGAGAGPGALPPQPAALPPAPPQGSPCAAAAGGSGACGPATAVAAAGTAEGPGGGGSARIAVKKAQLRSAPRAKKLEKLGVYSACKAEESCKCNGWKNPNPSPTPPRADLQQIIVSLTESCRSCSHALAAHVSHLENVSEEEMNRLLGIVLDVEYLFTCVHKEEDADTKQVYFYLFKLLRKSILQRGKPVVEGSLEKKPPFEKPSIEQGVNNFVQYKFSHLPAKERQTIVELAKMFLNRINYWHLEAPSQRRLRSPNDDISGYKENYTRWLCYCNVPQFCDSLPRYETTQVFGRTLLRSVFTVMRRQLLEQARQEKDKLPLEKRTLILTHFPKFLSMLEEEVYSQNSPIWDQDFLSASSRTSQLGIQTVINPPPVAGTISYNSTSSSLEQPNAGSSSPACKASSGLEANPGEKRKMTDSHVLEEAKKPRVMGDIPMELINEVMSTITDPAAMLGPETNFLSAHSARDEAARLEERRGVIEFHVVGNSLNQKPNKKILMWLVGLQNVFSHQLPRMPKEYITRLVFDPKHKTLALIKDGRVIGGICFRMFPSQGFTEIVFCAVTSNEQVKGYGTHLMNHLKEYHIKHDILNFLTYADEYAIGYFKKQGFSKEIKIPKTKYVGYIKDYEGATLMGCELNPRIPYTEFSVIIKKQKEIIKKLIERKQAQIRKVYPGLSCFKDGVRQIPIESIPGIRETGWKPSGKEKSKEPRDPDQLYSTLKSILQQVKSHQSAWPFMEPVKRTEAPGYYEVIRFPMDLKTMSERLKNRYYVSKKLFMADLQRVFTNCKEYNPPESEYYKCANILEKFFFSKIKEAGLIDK

Experiment [1] addresses Myc-tagged SNRNP200 (human) (UniProt O75643). The experiment in a line: affinity purification with mass spectrometry; IP-LC-MS: HEK293T cells transfected with pCMV6-SNRNP200-Myc, immunoprecipitated with Protein A/G magnetic beads in IP buffer, bands specific to Myc-SNRNP200 cells digested with trypsin; control pCMV6-Entry.
Experiment [2] shares this target. The experiment is described as above. The source holds these as a separate data set.

Read-outs that look alike come from different tables or passages of the source. Results are given in words; binding and its absence hold for the method and conditions named. In cells and extracts the contact can be indirect. Here binding means that the protein was enriched with, or labelled near, the bait; the list need not be complete.

As for “PCAF (endogenous) (from UniProt Q92831 1-832) (enzyme)”, in experiment [1], the binding entry is recorded as “binds”.

B1: RNF123 (endogenous) (enzyme, UniProt Q5XPI4 1-1314)
chain: MASKGAGMSFSRKSYRLTSDAEKSRVTGIVQEKLLNDYLNRIFSSSEHAPPAATSRKPLNFQNLPEHLDQLLQVDNEEEESQGQVEGRLGPSTVVLDHTGGFEGLLLVDDDLLGVIGHSNFGTIRSTTCVYKGKWLYEVLISSQGLMQIGWCTISCRFNQEEGVGDTHNSYAYDGNRVRKWNVTTTNYGKAWAAGDIVSCLIDLDDGTLSFCLNGVSLGTAFENLSRGLGMAYFPAISLSFKESVAFNFGSRPLRYPVAGYRPLQDPPSADLVRAQRLLGCFRAVLSVELDPVEGRLLDKESSKWRLRGQPTVLLTLAHIFHHFAPLLRKVYLVEAVLMSFLLGIVEKGTPTQAQSVVHQVLDLLWLFMEDYEVQDCLKQLMMSLLRLYRFSPIVPDLGLQIHYLRLTIAILRHEKSRKFLLSNVLFDVLRSVVFFYIKSPLRVEEAGLQELIPTTWWPHCSSREGKESTEMKEETAEERLRRRAYERGCQRLRKRIEVVEELQVQILKLLLDNKDDNGGEASRYIFLTKFRKFLQENASGRGNMPMLCPPEYMVCFLHRLISALRYYWDEYKASNPHASFSEEAYIPPQVFYNGKVDYFDLQRLGGLLSHLRKTLKDDLASKANIVIDPLELQSTAMDDLDEDEEPAPAMAQRPMQALAVGGPLPLPRPGWLSSPTLGRANRFLSTAAVSLMTPRRPLSTSEKVKVRTLSVEQRTREDIEGSHWNEGLLLGRPPEEPEQPLTENSLLEVLDGAVMMYNLSVHQQLGKMVGVSDDVNEYAMALRDTEDKLRRCPKRRKDILAELTKSQKVFSEKLDHLSRRLAWVHATVYSQEKMLDIYWLLRVCLRTIEHGDRTGSLFAFMPEFYLSVAINSYSALKNYFGPVHSMEELPGYEETLTRLAAILAKHFADARIVGTDIRDSLMQALASYVCYPHSLRAVERIPEEQRIAMVRNLLAPYEQRPWAQTNWILVRLWRGCGFGYRYTRLPHLLKTKLEDANLPSLQKPCPSTLLQQHMADLLQQGPDVAPSFLNSVLNQLNWAFSEFIGMIQEIQQAAERLERNFVDSRQLKVCATCFDLSVSLLRVLEMTITLVPEIFLDWTRPTSEMLLRRLAQLLNQVLNRVTAERNLFDRVVTLRLPGLESVDHYPILVAVTGILVQLLVRGPASEREQATSVLLADPCFQLRSICYLLGQPEPPAPGTALPAPDRKRFSLQSYADYISADELAQVEQMLAHLTSASAQAAAASLPTSEEDLCPICYAHPISAVFQPCGHKSCKACINQHLMNNKDCFFCKTTIVSVEDWEKGANTSTTSSAA
For the molecule B1, in experiment [2], the binding result is “binds”.
